{"source": "PubChem BioAssay AID1259405, NCATS | 2018", "assay": "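Knock-downs that lift recombinant protein yield in hamster ovary cells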 (primary screen)", "cell system": "Chinese hamster CHO-K1 ovary cells with stable secreted eGFP expression", "knock-down reagent": "single siRNA against mouse genes, 0.8 pmol siRNA per well (2 µl of 400 nM stock)", "timing": "3 days", "measured": "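Per-well intracellular GFP measured by laser scanning cytometry, plus viability from ATP luminescence, each relative to plate median of non-targeting control wells, in %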", "scale": "GFP, % of control: higher = more GFP per well, higher productivity; viability (ATP), % of control: higher = more viable cells (more ATP)", "active means": "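a knock-down is called active if GFP reaches 120% or more of non-targeting control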", "note": "Here is a random part of about 50,000 reagents. About 4,000 of all reagents (8%) were called active. 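Mouse siRNA library applied to hamster cells; one well for each siRNA.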 Entries without a mark were called inactive. Reagents against one gene are numbered here."}
{"gene": "Acbd6", "siRNA no.": 1, "GFP, % of control": 99.6, "viability (ATP), % of control": 75.6}
{"gene": "Acbd6", "siRNA no.": 2, "GFP, % of control": 33.4, "viability (ATP), % of control": 34.4}
{"gene": "Acbd6", "siRNA no.": 3, "GFP, % of control": 66.9, "viability (ATP), % of control": 62.8}
{"gene": "Ppp1ca", "siRNA no.": 1, "GFP, % of control": 78.2, "viability (ATP), % of control": 45.6}
{"gene": "Ppp1ca", "siRNA no.": 2, "GFP, % of control": 39.1, "viability (ATP), % of control": 47.5}
{"gene": "Ppp1ca", "siRNA no.": 3, "GFP, % of control": 77.8, "viability (ATP), % of control": 65.2}
{"gene": "Gng8", "siRNA no.": 1, "GFP, % of control": 79.8, "viability (ATP), % of control": 81.8}
{"gene": "Gng8", "siRNA no.": 2, "GFP, % of control": "187 (active)", "viability (ATP), % of control": 101}
{"gene": "Gng8", "siRNA no.": 3, "GFP, % of control": 114, "viability (ATP), % of control": 53.8}
{"gene": "Or8i2", "siRNA no.": 1, "GFP, % of control": 57.3, "viability (ATP), % of control": 49.6}
{"gene": "Or8i2", "siRNA no.": 2, "GFP, % of control": 95.3, "viability (ATP), % of control": 93.3}
{"gene": "Or8i2", "siRNA no.": 3, "GFP, % of control": 78.8, "viability (ATP), % of control": 80.3}
{"gene": "Or5be3", "siRNA no.": 1, "GFP, % of control": 120, "viability (ATP), % of control": 67.3}
{"gene": "Or5be3", "siRNA no.": 2, "GFP, % of control": 87.8, "viability (ATP), % of control": 54.8}
{"gene": "Or5be3", "siRNA no.": 3, "GFP, % of control": 42.8, "viability (ATP), % of control": 47.7}
{"gene": "Bcan", "siRNA no.": 1, "GFP, % of control": 83.8, "viability (ATP), % of control": 60.1}
{"gene": "Bcan", "siRNA no.": 2, "GFP, % of control": 102, "viability (ATP), % of control": 74.2}
{"gene": "Bcan", "siRNA no.": 3, "GFP, % of control": 59.3, "viability (ATP), % of control": 72.4}
{"gene": "Myocd", "siRNA no.": 1, "GFP, % of control": 34.6, "viability (ATP), % of control": 32.8}
{"gene": "Myocd", "siRNA no.": 2, "GFP, % of control": 48.8, "viability (ATP), % of control": 82.6}
{"gene": "Myocd", "siRNA no.": 3, "GFP, % of control": 78.2, "viability (ATP), % of control": 110}
{"gene": "Epha6", "siRNA no.": 1, "GFP, % of control": 40.2, "viability (ATP), % of control": 50.3}
{"gene": "Epha6", "siRNA no.": 2, "GFP, % of control": 81, "viability (ATP), % of control": 97.7}
{"gene": "Epha6", "siRNA no.": 3, "GFP, % of control": 60.5, "viability (ATP), % of control": 73.5}
{"gene": "Mt3", "siRNA no.": 1, "GFP, % of control": 25.3, "viability (ATP), % of control": 28.9}
{"gene": "Mt3", "siRNA no.": 2, "GFP, % of control": 71.3, "viability (ATP), % of control": 105}
{"gene": "Mt3", "siRNA no.": 3, "GFP, % of control": 61.1, "viability (ATP), % of control": 81}
{"gene": "Aldh1b1", "siRNA no.": 1, "GFP, % of control": 97, "viability (ATP), % of control": 86.5}
{"gene": "Aldh1b1", "siRNA no.": 2, "GFP, % of control": 64.4, "viability (ATP), % of control": 68.3}
{"gene": "Aldh1b1", "siRNA no.": 3, "GFP, % of control": 55.9, "viability (ATP), % of control": 86.8}
{"gene": "A530021J07Rik", "siRNA no.": 1, "GFP, % of control": 55.5, "viability (ATP), % of control": 77.1}
{"gene": "A530021J07Rik", "siRNA no.": 2, "GFP, % of control": 82.2, "viability (ATP), % of control": 101}
{"gene": "A530021J07Rik", "siRNA no.": 3, "GFP, % of control": 64.6, "viability (ATP), % of control": 82.6}
{"gene": "Sirt6", "siRNA no.": 1, "GFP, % of control": 76.7, "viability (ATP), % of control": 83}
{"gene": "Sirt6", "siRNA no.": 2, "GFP, % of control": 87.5, "viability (ATP), % of control": 80.8}
{"gene": "Crp", "siRNA no.": 1, "GFP, % of control": 91.8, "viability (ATP), % of control": 96.3}
{"gene": "Crp", "siRNA no.": 2, "GFP, % of control": 31.1, "viability (ATP), % of control": 63.4}
{"gene": "Ugt2b36", "siRNA no.": 1, "GFP, % of control": 67.9, "viability (ATP), % of control": 57.6}
{"gene": "Ugt2b36", "siRNA no.": 2, "GFP, % of control": 69.3, "viability (ATP), % of control": 80.7}
{"gene": "Ugt2b36", "siRNA no.": 3, "GFP, % of control": 69.9, "viability (ATP), % of control": 42.5}

Single entries from above.
Result for Or5be3 #3 in “GFP, % of control”: 42.8
Value of Gng8 #3 in “GFP, % of control”: 114
Acbd6 #1, viability (ATP), % of control → 75.6
